Data published in paper PMC6136374.
These are yes or no findings as the source states them, for the method shown. For some assays here: Binding seen in cells or lysates may run through a third protein. Some entries that bind do so weakly or less than the wild type. Where a sequence is shown, tags or fusion partners need not be part of it.

The chains behind the UniProt entries cited, without tags or fusion partners.
UniProt Q39204: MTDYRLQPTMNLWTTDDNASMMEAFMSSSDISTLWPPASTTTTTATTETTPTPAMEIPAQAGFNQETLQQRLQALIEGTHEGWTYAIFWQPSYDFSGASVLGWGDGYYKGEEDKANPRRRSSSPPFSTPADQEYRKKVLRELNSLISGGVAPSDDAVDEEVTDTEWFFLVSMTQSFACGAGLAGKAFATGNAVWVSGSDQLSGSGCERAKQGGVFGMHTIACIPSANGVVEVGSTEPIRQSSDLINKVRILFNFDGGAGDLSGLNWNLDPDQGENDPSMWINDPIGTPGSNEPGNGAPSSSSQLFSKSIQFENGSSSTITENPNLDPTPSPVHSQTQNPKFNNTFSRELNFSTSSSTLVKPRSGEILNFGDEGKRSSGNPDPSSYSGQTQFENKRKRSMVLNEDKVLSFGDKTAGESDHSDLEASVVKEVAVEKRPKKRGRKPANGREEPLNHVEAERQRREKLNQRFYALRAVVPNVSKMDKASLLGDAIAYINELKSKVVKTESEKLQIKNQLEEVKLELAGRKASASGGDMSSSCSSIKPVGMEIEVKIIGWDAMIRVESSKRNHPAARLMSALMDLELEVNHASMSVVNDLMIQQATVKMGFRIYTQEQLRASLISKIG

B1: AD-ABF3 (ABA responsive elements-binding factor ABF3 in pGADT7) (protein, UniProt Q9M7Q3 1-454)
chain: MGSRLNFKSFVDGVSEQQPTVGTSLPLTRQNSVFSLTFDEFQNSWGGGIGKDFGSMNMDELLKNIWTAEESHSMMGNNTSYTNISNGNSGNTVINGGGNNIGGLAVGVGGESGGFFTGGSLQRQGSLTLPRTISQKRVDDVWKELMKEDDIGNGVVNGGTSGIPQRQQTLGEMTLEEFLVRAGVVREEPQPVESVTNFNGGFYGFGSNGGLGTASNGFVANQPQDLSGNGVAVRQDLLTAQTQPLQMQQPQMVQQPQMVQQPQQLIQTQERPFPKQTTIAFSNTVDVVNRSQPATQCQEVKPSILGIHNHPMNNNLLQAVDFKTGVTVAAVSPGSQMSPDLTPKSALDASLSPVPYMFGRVRKTGAVLEKVIERRQKRMIKNRESAARSRARKQAYTMELEAEIAQLKELNEELQKKQVEIMEKQKNQLLEPLRQPWGMGCKRQCLRRTLTGPW
B2: nYFP-ABF3 (protein, UniProt Q9M7Q3 1-454)
chain: MGSRLNFKSFVDGVSEQQPTVGTSLPLTRQNSVFSLTFDEFQNSWGGGIGKDFGSMNMDELLKNIWTAEESHSMMGNNTSYTNISNGNSGNTVINGGGNNIGGLAVGVGGESGGFFTGGSLQRQGSLTLPRTISQKRVDDVWKELMKEDDIGNGVVNGGTSGIPQRQQTLGEMTLEEFLVRAGVVREEPQPVESVTNFNGGFYGFGSNGGLGTASNGFVANQPQDLSGNGVAVRQDLLTAQTQPLQMQQPQMVQQPQMVQQPQQLIQTQERPFPKQTTIAFSNTVDVVNRSQPATQCQEVKPSILGIHNHPMNNNLLQAVDFKTGVTVAAVSPGSQMSPDLTPKSALDASLSPVPYMFGRVRKTGAVLEKVIERRQKRMIKNRESAARSRARKQAYTMELEAEIAQLKELNEELQKKQVEIMEKQKNQLLEPLRQPWGMGCKRQCLRRTLTGPW

How the values were obtained:
[1] = target: BD-MYC2 (basic helix-loop-helix transcription factor MYC2 in pGBKT7) (Arabidopsis thaliana) (UniProt Q39204); assay: two-hybrid; AD-ABF3 (pGADT7) and BD-MYC2 (pGBKT7) co-transformed into yeast AH109; growth on SD -LEU -TRP -HIS -ADE plates with 10 mM 3-AT, 30 °C
[2] = target: MYC2-cYFP (Arabidopsis thaliana) (UniProt Q39204); assay: split reporter; BiFC with nYFP (pXY106) and cYFP (pXY104) fusions co-transformed into Nicotiana benthamiana leaf epidermal cells; confocal microscopy after 48 hours

Binder	binding [1]	binding [2]
B1	binds	
B2		binds
